This is one part of the list.
What was measured:
Test in all cases: log2 fold change, soluble protein after heating vs DMSO (PISA); higher = thermal stabilisation; K562 cells, 10 uM, 30 min; active = over 0.2 and 3.5 SD of the protein, either way, in both replicates (recomputed)
[1] = compound: CN1CCN(CCOc2cc(OC3CCOCC3)c3c(Nc4c(Cl)ccc5c4OCO5)ncnc3c2)CC1 [saracatinib]
Procedure, shortened: (§1)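 K562 cells at 2×10^6 cells/mL were treated with 10 μM compound for 30 min. Aliquots were heated for 3 min across 48°C-58°C, pooled, and extracted in PBS with 0.5% NP-40 at 4°C; soluble protein was the supernatant after 21,000xg for 90 min. Soluble protein was quantified by TMTpro 16plex LC-MS/MS with channel sums equalised, and reported as log2 fold change in thermal stability against DMSO controls, with values from duplicates.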

Chains of the proteins cited; added tags and fusions are not shown. Lines headed by an entry give the natural chain unless they say otherwise; changes in a name come on top.
UniProt P50570: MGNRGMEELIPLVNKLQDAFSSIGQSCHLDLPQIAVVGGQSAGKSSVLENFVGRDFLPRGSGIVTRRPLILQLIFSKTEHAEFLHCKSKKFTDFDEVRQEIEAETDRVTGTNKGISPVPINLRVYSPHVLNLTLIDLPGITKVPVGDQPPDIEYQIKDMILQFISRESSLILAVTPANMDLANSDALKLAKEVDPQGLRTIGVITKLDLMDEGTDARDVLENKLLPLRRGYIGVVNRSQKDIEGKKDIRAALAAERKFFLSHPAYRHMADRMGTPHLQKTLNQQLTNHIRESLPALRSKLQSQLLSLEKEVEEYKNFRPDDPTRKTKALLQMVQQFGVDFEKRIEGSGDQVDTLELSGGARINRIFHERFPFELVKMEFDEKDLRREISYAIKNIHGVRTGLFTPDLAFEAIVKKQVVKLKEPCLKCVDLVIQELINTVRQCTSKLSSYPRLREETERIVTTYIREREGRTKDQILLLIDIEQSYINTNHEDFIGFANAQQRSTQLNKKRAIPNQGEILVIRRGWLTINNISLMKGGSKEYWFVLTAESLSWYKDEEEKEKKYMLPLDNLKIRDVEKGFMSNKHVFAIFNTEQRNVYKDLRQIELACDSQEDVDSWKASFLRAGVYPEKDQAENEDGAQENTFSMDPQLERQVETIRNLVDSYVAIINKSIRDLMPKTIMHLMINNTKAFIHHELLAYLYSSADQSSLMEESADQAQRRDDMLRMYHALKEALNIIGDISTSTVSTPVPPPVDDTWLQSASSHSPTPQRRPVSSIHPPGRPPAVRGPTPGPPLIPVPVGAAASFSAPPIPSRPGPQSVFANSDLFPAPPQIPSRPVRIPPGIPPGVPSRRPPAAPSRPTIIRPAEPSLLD
UniProt Q5VYK3, whole entry, looked up: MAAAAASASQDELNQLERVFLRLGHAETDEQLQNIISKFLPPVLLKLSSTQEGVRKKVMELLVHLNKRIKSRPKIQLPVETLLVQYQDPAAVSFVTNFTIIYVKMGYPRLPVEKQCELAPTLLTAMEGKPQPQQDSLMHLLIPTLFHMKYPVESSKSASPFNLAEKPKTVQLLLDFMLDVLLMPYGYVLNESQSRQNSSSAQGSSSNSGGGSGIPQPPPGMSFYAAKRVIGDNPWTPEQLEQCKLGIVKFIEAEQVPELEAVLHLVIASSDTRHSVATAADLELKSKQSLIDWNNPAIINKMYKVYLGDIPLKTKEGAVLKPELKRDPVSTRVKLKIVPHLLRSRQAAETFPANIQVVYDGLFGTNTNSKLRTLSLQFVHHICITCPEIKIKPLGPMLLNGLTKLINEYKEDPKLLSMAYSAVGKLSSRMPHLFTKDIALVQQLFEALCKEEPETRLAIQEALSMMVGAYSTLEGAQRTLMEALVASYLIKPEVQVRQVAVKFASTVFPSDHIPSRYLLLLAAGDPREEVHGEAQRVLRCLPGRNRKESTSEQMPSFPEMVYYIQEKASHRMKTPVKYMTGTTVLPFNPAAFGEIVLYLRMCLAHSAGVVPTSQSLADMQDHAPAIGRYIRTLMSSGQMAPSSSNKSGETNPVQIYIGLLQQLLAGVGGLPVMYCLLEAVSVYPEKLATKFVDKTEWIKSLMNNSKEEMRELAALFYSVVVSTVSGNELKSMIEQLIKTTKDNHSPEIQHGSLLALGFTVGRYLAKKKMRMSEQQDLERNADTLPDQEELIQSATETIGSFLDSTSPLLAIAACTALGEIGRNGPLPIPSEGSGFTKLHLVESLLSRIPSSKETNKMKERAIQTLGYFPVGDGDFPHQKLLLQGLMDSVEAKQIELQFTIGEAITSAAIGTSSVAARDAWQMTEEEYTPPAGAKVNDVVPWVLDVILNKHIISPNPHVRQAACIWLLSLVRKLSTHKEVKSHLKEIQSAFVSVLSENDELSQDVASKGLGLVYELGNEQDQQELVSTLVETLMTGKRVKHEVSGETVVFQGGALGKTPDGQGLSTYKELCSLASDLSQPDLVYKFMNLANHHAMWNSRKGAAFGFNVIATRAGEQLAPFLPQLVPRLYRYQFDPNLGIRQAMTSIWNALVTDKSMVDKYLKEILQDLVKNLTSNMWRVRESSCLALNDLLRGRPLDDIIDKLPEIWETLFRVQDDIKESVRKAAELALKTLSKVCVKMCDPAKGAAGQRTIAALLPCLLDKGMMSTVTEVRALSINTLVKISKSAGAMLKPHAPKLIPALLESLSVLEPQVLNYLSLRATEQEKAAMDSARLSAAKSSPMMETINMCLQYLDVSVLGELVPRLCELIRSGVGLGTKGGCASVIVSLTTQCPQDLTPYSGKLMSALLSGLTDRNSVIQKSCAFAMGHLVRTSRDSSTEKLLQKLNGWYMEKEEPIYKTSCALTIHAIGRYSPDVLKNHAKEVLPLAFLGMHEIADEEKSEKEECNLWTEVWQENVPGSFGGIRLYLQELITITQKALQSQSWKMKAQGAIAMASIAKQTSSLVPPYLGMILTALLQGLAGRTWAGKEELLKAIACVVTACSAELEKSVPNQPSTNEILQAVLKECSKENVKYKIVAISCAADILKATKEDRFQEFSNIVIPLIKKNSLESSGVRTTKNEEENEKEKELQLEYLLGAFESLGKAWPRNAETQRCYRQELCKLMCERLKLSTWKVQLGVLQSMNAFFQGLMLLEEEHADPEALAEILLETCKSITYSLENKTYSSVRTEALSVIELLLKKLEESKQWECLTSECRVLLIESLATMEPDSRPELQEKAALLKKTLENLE
UniProt Q8NBA8: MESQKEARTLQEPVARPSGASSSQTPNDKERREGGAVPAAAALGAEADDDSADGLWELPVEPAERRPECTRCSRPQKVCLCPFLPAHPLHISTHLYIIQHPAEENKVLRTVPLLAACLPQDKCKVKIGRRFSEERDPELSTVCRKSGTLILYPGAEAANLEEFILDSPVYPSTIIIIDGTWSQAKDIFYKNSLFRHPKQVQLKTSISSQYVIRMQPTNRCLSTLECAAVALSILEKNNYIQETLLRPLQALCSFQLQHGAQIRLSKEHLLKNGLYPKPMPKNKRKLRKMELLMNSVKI
UniProt Q9H1X3: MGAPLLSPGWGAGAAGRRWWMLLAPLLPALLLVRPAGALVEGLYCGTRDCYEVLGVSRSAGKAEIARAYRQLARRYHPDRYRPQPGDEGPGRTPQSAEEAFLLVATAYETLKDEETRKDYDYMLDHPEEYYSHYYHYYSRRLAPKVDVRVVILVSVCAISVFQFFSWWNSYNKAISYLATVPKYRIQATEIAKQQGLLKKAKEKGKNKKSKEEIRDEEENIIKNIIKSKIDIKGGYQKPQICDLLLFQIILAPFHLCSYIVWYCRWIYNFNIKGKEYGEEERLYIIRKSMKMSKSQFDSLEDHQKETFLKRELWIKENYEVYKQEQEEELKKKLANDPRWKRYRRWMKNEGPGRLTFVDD
UniProt Q9H8V3: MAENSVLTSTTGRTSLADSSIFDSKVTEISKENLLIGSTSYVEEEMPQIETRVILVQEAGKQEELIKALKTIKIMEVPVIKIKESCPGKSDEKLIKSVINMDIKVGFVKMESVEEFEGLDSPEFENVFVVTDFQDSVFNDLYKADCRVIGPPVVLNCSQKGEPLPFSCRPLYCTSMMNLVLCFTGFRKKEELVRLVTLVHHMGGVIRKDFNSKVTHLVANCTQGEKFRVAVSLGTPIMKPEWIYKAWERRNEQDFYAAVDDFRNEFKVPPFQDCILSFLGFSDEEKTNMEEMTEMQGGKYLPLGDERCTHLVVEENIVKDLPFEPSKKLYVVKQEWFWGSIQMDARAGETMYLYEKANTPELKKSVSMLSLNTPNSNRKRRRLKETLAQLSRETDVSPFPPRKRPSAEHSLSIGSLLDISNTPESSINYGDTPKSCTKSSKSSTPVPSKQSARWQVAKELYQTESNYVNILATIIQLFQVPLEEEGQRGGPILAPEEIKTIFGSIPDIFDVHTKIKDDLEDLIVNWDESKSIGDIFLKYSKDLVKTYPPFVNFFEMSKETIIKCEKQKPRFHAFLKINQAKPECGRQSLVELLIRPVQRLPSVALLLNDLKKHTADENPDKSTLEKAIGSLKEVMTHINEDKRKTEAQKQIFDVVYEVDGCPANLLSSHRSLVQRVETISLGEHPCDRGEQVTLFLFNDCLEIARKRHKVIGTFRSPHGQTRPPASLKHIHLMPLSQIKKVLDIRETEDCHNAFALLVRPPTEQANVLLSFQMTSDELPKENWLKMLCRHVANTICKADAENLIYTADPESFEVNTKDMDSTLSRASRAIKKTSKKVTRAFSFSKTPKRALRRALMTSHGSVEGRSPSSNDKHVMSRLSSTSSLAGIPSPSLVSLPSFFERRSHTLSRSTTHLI
UniProt Q96BY6: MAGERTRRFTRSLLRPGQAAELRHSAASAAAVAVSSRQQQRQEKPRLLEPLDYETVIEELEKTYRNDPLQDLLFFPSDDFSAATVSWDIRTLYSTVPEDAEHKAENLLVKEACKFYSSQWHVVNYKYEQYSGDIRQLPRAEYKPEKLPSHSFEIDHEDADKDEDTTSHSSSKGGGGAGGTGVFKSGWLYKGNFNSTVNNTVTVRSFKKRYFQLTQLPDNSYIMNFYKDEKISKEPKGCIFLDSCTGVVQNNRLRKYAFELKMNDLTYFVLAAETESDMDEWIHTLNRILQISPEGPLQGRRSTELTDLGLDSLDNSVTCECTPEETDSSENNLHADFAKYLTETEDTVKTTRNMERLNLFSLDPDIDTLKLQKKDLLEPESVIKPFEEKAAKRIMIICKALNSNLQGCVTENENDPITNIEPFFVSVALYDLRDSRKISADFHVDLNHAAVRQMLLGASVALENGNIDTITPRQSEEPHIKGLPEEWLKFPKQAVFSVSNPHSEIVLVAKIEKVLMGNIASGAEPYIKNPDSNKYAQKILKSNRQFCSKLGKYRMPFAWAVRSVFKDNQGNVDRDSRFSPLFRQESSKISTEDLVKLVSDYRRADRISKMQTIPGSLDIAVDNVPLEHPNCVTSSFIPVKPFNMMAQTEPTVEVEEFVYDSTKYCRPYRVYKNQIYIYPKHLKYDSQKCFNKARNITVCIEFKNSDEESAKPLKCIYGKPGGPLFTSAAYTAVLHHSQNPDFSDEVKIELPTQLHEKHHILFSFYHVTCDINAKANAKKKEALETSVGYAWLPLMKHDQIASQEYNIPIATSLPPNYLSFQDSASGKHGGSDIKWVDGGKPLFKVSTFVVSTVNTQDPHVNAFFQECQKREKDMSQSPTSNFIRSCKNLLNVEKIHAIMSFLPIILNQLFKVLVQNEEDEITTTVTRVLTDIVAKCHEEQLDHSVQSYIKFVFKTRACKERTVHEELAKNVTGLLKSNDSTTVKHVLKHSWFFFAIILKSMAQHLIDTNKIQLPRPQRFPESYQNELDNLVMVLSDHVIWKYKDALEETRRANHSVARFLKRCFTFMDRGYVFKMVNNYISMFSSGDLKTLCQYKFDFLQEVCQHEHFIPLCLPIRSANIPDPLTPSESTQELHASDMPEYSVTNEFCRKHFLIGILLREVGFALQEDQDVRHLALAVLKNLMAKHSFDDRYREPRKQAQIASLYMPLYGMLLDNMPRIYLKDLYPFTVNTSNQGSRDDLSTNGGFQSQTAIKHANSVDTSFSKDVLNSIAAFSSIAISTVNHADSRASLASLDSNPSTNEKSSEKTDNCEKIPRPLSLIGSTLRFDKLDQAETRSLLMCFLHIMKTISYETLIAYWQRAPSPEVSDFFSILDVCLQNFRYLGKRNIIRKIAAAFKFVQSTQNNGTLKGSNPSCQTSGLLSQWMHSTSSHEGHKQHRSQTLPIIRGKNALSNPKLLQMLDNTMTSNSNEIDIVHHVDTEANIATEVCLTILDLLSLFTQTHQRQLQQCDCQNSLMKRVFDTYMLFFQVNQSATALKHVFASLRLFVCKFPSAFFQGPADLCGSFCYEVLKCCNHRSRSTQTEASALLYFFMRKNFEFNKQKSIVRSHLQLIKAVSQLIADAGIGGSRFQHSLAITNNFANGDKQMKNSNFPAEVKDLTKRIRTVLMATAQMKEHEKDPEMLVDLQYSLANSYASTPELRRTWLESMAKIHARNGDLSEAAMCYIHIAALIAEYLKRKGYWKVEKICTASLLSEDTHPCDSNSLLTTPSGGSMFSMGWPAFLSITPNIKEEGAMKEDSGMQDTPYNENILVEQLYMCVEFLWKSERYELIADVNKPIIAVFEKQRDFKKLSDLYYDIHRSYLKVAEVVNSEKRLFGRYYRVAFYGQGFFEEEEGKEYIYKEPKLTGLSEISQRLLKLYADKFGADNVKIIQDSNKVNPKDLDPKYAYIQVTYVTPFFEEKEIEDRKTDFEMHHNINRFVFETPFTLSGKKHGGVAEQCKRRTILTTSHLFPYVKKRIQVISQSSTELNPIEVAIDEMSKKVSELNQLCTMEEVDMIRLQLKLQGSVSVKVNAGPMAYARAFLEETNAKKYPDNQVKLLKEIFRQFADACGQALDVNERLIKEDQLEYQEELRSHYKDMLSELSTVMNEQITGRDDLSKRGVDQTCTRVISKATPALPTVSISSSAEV

[2] = compound: CN1CCN(c2nc(C3=C(c4c[nH]c5ccccc45)C(=O)NC3=O)c3ccccc3n2)CC1 [sotrastaurin]
Procedure, shortened: as §1

[3] = compound: CN1CCc2c(c3ccccc3n2Cc2ccc(C(=O)NO)cc2)C1 [Tubastatin A]
Procedure, shortened: as §1

[4] = compound: CNC(=O)C1=CC=CC=C1NC2=NC(=NC=C2Cl)NC3=C(C=C(C=C3)N4CCOCC4)OC
Procedure, shortened: as §1

[5] = compound: CNC(=O)c1ccc(Nc2ncc(C(F)(F)F)c(NCc3nccnc3N(C)S(C)(=O)=O)n2)cc1 [defactinib]
Procedure, shortened: as §1

[6] = compound: CNCc1ccc(-c2[nH]c3cc(F)cc4c3c2CCNC4=O)cc1 [rucaparib]
Procedure, shortened: as §1

[7] = compound: CNc1nc(-c2ccc3c(N)n[nH]c3c2)cc(N2C[C@@H](C(=O)NC3CCCCC3)CC[C@H]2C)n1
Procedure, shortened: as §1

[8] = compound: COC(=O)N[C@@H](C)CNc1nccc(-c2cn(C(C)C)nc2-c2cc(Cl)cc(NS(C)(=O)=O)c2F)n1 [encorafenib]
Procedure, shortened: as §1

[9] = compound: COC(=O)[C@H](CCSC)NC(=O)C1=C(C=C(C=C1)NC[C@H](CS)N)C2=CC=CC=C2
Procedure, shortened: as §1

[10] = compound: COC1=CC=C(C=C1)CN2C=CC3=C2C=C(C=C3)C(=O)NO
Procedure, shortened: as §1

[11] = compound: CON(C)C(=O)N1N=C(c2cc(F)ccc2F)S[C@@]1(CCCN)c1ccccc1 [filanesib]
Procedure, shortened: as §1

[12] = compound: CO[C@H]1C[C@@H]2CC[C@@H](C)[C@@](O)(O2)C(=O)C(=O)N2CCCC[C@H]2C(=O)O[C@H]([C@H](C)C[C@@H]2CC[C@H](n3cnnn3)[C@H](OC)C2)CC(=O)[C@H](C)/C=C(\C)[C@@H](O)[C@@H](OC)C(=O)[C@H](C)C[C@H](C)/C=C/C=C/C=C/1C [zotarolimus]
Procedure, shortened: as §1

[13] = compound: COc1cc(C(=O)O)ccc1NC(=O)[C@@H]1N[C@@H](CC(C)(C)C)[C@](C#N)(c2ccc(Cl)cc2F)[C@H]1c1cccc(Cl)c1F [idasanutlin]
Procedure, shortened: as §1

[14] = compound: COc1cc(Nc2ncc3c(n2)-c2ccc(Cl)cc2C(c2c(F)cccc2OC)=NC3)ccc1C(=O)O [alisertib]
Procedure, shortened: as §1

[15] = compound: COc1cc2nc(-c3cc(F)ccc3O)nc(N[C@@H]3CNC[C@H]3C(C)(C)O)c2cc1OC
Procedure, shortened: as §1

[16] = compound: COc1cc2ncnc(Nc3ccc(F)c(Cl)c3)c2cc1OCCCN1CCOCC1 [gefitinib]
Procedure, shortened: as §1

[17] = compound: COc1cccc2cc(-c3nc([C@H]4CC[C@H](C(=O)O)CC4)n4ncnc(N)c34)[nH]c12
Procedure, shortened: as §1

[18] = compound: CS(=O)(=O)CCNCc1ccc(-c2ccc3ncnc(Nc4ccc(OCc5cccc(F)c5)c(Cl)c4)c3c2)o1 [lapatinib]
Procedure, shortened: as §1

[19] = compound: CS(=O)(=O)N1CCN(Cc2cc3nc(-c4cccc5[nH]ncc45)nc(N4CCOCC4)c3s2)CC1 [pictilisib]
Procedure, shortened: as §1

[20] = compound: CN1CC[C@H](c2c(O)cc(O)c3c(=O)cc(-c4ccccc4Cl)oc23)[C@H](O)C1 [alvocidib]
Procedure, shortened: as §1

Measured: log2 fold change

E2F4 (UniProt Q16254)
inactive: [1] -0.012 | [2] -0.056 | [3] 0.028 | [4] -0.045 | [5] -0.122 | [6] -0.025 | [7] -0.02 | [8] -0.002 | [9] -0.042 | [10] -0.024 | [11] -0.034 | [12] 0.042 | [13] 0.006 | [14] -0.056 | [15] -0.098 | [16] 0.003 | [17] 0.059 | [18] 0.047 | [19] 0.044

DNM2 (UniProt P50570)
inactive: [1] -0.028 | [2] 0.043 | [3] 0 | [4] -0.027 | [5] -0.02 | [6] 0.035 | [7] 0.029 | [8] 0.009 | [9] -0.03 | [10] -0.022 | [11] -0.107 | [12] 0.016 | [13] -0.078 | [14] -0.073 | [15] 0.099 | [16] 0.002 | [17] 0.023 | [18] -0.026 | [19] 0.021

DNMT3B (UniProt Q9UBC3)
inactive: [1] -0.277 | [7] -0.145 | [19] 0.418

DOK1 (UniProt Q99704)
inactive: [2] -0.037 | [20] 0.042 | [3] 0.017 | [4] -0.036 | [5] -0.111 | [6] 0.206 | [8] -0.043 | [9] 0.06 | [10] -0.476 | [11] -0.1 | [12] -0.057 | [13] -0.019 | [14] -0.14 | [15] -0.108 | [16] 0.231 | [17] -0.156 | [18] 0.079

DPYSL3 isoform 2 (UniProt Q14195)
inactive: [1] -0.32 | [4] 0.195 | [5] -0.207 | [7] 0.102 | [9] -0.114 | [15] 0.027 | [18] -0.063 | [19] 0.395

DPH5 isoform 5 (UniProt Q9H2P9)
inactive: [1] -0.007 | [2] -0.017 | [3] -0.022 | [4] 0.07 | [5] 0 | [6] -0.061 | [7] 0 | [8] 0.025 | [9] 0.004 | [10] -0.01 | [11] -0.024 | [12] -0.002 | [13] -0.049 | [14] -0.037 | [15] -0.071 | [16] 0.017 | [17] 0.046 | [18] 0.043 | [19] -0.006

DSTYK (UniProt Q6XUX3)
inactive: [1] 0.013 | [20] -0.228 | [3] -0.152 | [4] -0.079 | [5] -0.192 | [6] -0.004 | [7] 0.166 | [8] -0.075 | [9] -0.117 | [12] -0.142 | [16] -0.043 | [19] 0.32

DUSP9 (UniProt Q99956)
inactive: [1] -0.653 | [2] -0.166 | [4] 0.241 | [5] -0.063 | [7] 0.211 | [9] -0.051 | [10] -0.036 | [11] 0.017 | [16] 0.093

DNPH1 (UniProt H0Y8X4)
inactive: [1] -0.049 | [20] 0.003 | [3] 0.097 | [4] -0.052 | [7] -0.329 | [12] -0.017 | [13] 0 | [14] -0.089 | [15] -0.077 | [16] -0.072 | [17] 0.179 | [18] 0.265

DXO (UniProt O77932)
inactive: [1] 0.066 | [20] 0.029 | [3] 0.029 | [4] 0.047 | [5] 0.051 | [6] -0.09 | [7] -0.026 | [8] 0.25 | [9] 0.069 | [10] 0.036 | [12] -0.056 | [13] 0.007 | [14] 0.046 | [16] -0.016 | [17] 0.015 | [19] 0.042

Quoted at random: two records from the list, in no set order.
DSTYK (UniProt Q6XUX3)
inactive: [1] 0.013 | [20] -0.228 | [3] -0.152 | [4] -0.079 | [5] -0.192 | [6] -0.004 | [7] 0.166 | [8] -0.075 | [9] -0.117 | [12] -0.142 | [16] -0.043 | [19] 0.32

DXO (UniProt O77932)
inactive: [1] 0.066 | [20] 0.029 | [3] 0.029 | [4] 0.047 | [5] 0.051 | [6] -0.09 | [7] -0.026 | [8] 0.25 | [9] 0.069 | [10] 0.036 | [12] -0.056 | [13] 0.007 | [14] 0.046 | [16] -0.016 | [17] 0.015 | [19] 0.042

(next part)

ECPAS (UniProt Q5VYK3)
inactive: [1] -0.055 | [2] -0.124 | [3] 0.038 | [4] 0.012 | [5] -0.06 | [6] 0.09 | [7] 0.027 | [8] 0.122 | [9] -0.045 | [10] 0.004 | [11] -0.004 | [12] 0.033 | [13] -0.127 | [14] -0.001 | [15] 0.055 | [16] -0.007 | [17] -0.087 | [18] -0.033 | [19] 0.005

DPYSL2 (UniProt Q16555)
active: [19] 0.262
inactive: [1] 0.127 | [2] 0.062 | [3] -0.003 | [4] -0.066 | [5] 0.02 | [6] 0.015 | [7] -0.032 | [8] -0.054 | [9] -0.009 | [10] -0.082 | [11] 0.006 | [12] -0.06 | [13] 0.029 | [14] 0.093 | [15] 0.055 | [16] -0.041 | [17] 0.038 | [18] 0.029

DTWD2 (UniProt Q8NBA8)
inactive: [1] -0.032 | [2] -0.228 | [3] -0.029 | [4] 0.111 | [5] -0.022 | [6] 0.05 | [7] 0.04 | [8] 0.002 | [9] -0.032 | [10] -0.229 | [11] 0.307 | [12] -0.036 | [13] -0.073 | [14] 0.069 | [15] -0.18 | [16] -0.159 | [17] 0.002 | [18] 0.151 | [19] -0.042

DNAJC25 (UniProt Q9H1X3)
inactive: [3] 0.05 | [4] -0.047 | [10] 0.07 | [15] -0.256 | [18] 0.333

DNAJC30 (UniProt Q96LL9)
inactive: [4] -0.026 | [10] -0.126 | [13] 0.008

DNAJC15 (UniProt Q9Y5T4)
inactive: [2] 0.088 | [11] 0.031 | [15] -0.183 | [18] -0.179

DPCD (UniProt Q9BVM2)
inactive: [5] 0.016 | [9] -0.053 | [10] 0.059 | [13] 0.111 | [19] 0.096

ECT2 isoform 3 (UniProt Q9H8V3)
inactive: [2] -0.997 | [6] 0.244 | [8] 0.215 | [11] 0.454

DNASE1L1 (UniProt P49184)
inactive: [4] -0.155 | [13] 0.007

DOCK10 (UniProt Q96BY6)
inactive: [3] 0.127 | [5] -0.147 | [6] -0.357 | [8] 0.244 | [9] 0.089 | [10] 0.117 | [14] -0.074 | [16] 0.473 | [17] 0.047
